# Laboratory results as given in PubChem BioAssay AID624297 (National Center for Advancing Translational Sciences (NCATS), 2012).
# Hit rate of the full screen: of about 340,000 compounds, about 6,200 (1.8%) were called active. Inconclusive results, whose numbers are uncertain, are shown with a selection of clear calls. Calls follow the shape of the dose curve; as a rule, active = well fitted activation curve with a large enough effect; inconclusive = small, poorly fitted or top-dose-only effect; inactive = no such curve, though single readings can be large or run the other way. Potencies of inconclusive entries are doubtful fits and often do not repeat.
# Test: A quantitative high throughput screen for small molecules that induce DNA re-replication in SW480 colon adenocarcinoma cells. Also: nearly all actives have a fitted effect of over 55% in size. As to re-replication activation: % of control where 0% means no effect.
# Conditions: Hoechst DNA content imaging, 48 h; re-replication activation: at 46.1 µM (top of the series) unless noted
# Procedure, shortened: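 First, 250 cells per well were seeded. Next, compound or vehicle (23 nL) was pinned in, plates sat 48 hr at 37 C. Finally Hoechst was added for 40 min before fluorescence scanning.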
# Potency is read from the fitted curve at half-maximal effect.
Compound,Potency,re-replication activation
CC(=N\NC(=O)c1cc(Br)ccc1O)/C(=N/O)C(=O)Nc1ccccc1,"inconclusive: 2.91 µM [activator, single point]",–
CC(C)(C)C1CCc2c(sc(NC(=O)CSc3ncn[nH]3)c2C#N)C1 (centres undefined),"inconclusive: 20.6 µM [activator, single point]",–
O=C(NC1CC2CCCC(C1)N2Cc1ccco1)NC12CC3CC(CC(C3)C1)C2 (centres undefined),"inconclusive: 29.1 µM [activator, single point]",–
CCCOc1cccc(C(=O)NC(=S)Nc2ccccc2)c1,"inconclusive: 29.1 µM [activator, single point]",–
COc1ccc(CNc2oc(-c3cccc4ccccc34)nc2C#N)cc1,"inconclusive: 29.1 µM [activator, single point]",–
CN(C)C(=O)CSc1nc(-c2ccccc2)nc2c1CCCC2,"inconclusive: 29.1 µM [activator, single point]",–
Cc1cccc(CN2CCN(C(=O)CCl)CC2)c1,"inconclusive: 2.06 µM [activator, partial curve, poor fit]",–
COc1cccc(/C=N/NC(=O)CSc2cccc3cccnc23)c1,"inconclusive: 18.4 µM [activator, single point]",–
O=C(Cc1ccc(Br)cc1)NCc1ccccc1,active: 5.8 µM,–
CC(C)=CCc1c(O)c(CC=C(C)C)c2occ(-c3ccc(O)cc3)c(=O)c2c1O,"inconclusive: 29.1 µM [activator, single point]",–
COc1ccc(-c2c(C)oc3ccc(C)cc23)cc1,inactive,–
COc1ccc(C2C3=C(CC(C)(C)CC3=O)Oc3ncn(CCCn4ccnc4)c(=N)c32)cc1 (centres undefined),"inconclusive: 18.4 µM [activator, single point]",–
Nc1nc(CN2CCc3ccccc3C2)nc(Nc2ccccc2)n1,"inconclusive: 29.1 µM [activator, single point]",–
CC1(C)COC(c2cc3c(cc2Br)OCO3)OC1,inactive,–
COc1ccc(OC)c(NC(=O)COC(=O)CCS(=O)(=O)c2ccc(Cl)cc2)c1,inactive,–
Cc1ccc(C)c(Cn2c3ccccc3c3cnn(CC(=O)NCc4ccccn4)c(=O)c32)c1,"inconclusive: 29.1 µM [activator, single point]",–
CCOC(=O)CCCCCC(=O)Nc1ccc2c(c1)CC(=O)N([C@@H](C)CO)C[C@H](C)[C@@H](CN(C)C(=O)Nc1ccc3c(c1)OCO3)O2,"inconclusive: 0.58 µM [activator, single point]",–
C=CS(=O)(=O)N(Cc1ccc(Cl)c(Cl)c1)C[C@@H](O)CO,"inconclusive: 29.1 µM [activator, single point]",–
CCOC(=O)c1ccc(NC(=O)CN(c2ccc(C)cc2)S(=O)(=O)c2c(C)n[nH]c2C)cc1,"inconclusive: 20.6 µM [activator, single point]",–
CC(C)NC(=O)COC(=O)c1ccc(NS(=O)(=O)c2ccc3c(c2)OCCO3)cc1,"inconclusive: 4.11 µM [activator, full curve, poor fit]",–
CCOc1ccc(NC(=O)C(c2ccccn2)N(C(=O)CCl)c2ccc(OC)cc2)cc1 (centres undefined),"inconclusive: 29.1 µM [activator, single point]",–
O=C(NCc1cccs1)c1cc(S(=O)(=O)N2CCOCC2)c(Cl)cc1Cl,"inconclusive: 29.1 µM [activator, single point]",–
Cc1ccc(Nc2c([N+](=O)[O-])ccc3nonc23)c(C)c1,inactive,–

Compound,Potency,re-replication activation
CCn1c2ccccc2c2cc(NC(=O)c3cc(C)on3)ccc21,"inconclusive: 29.1 µM [activator, single point]",–
C/C(=N\Nc1nc(C)cc(-c2ccccc2)n1)c1ccccc1,"inconclusive: 18.4 µM [activator, partial curve, poor fit]",–
CCOC(=O)c1c(C)c(C(=O)NCc2ccco2)c(C)n1Cc1ccccc1,inactive,–
COc1ccc(/C=C(\C)c2nc(C)c(-c3ccccc3)c(=O)[nH]2)cc1,"inconclusive: 14.6 µM [activator, partial curve]",–
COc1ccc(-c2nc3ccccc3n2Cc2ccc(C)cc2)cc1,inactive,–
CN(C)c1cccc(C(=O)NCc2ccc(Cl)cc2)c1,"inconclusive: 9.2 µM [activator, partial curve, poor fit]",–
COc1ccc(-c2cc(-c3c(O)c(OC)c4occc4c3OC)[nH]n2)cc1OC,inactive,–
COc1ccc(CNC(=O)C23CC4CC(CC(Br)(C4)C2)C3)cc1,inactive,–
Cc1cc(C)c2nc(NCCCNC(=S)NCCCN(C)C)c(C#N)cc2c1,active: 11.6 µM,–
COc1cccc(CNC(=O)c2cccc(S(=O)(=O)N3CCN(c4ccc(F)cc4)CC3)c2)c1,inactive,–
Cc1nc2c(C)cccc2cc1C(=O)N/N=C/c1ccc(N(C)C)cc1,"inconclusive: 23.1 µM [activator, single point]",–
C(=C\c1nccc2c1[nH]c1ccccc12)/c1ccccc1,active: 11.6 µM,–
Cc1[nH]c2ccccc2c1C(O)c1ccncc1 (centres undefined),inactive,–
Cc1cc(NS(=O)(=O)c2ccc(NC(=O)COc3ccc(Br)cc3)cc2)nc(C)n1,"inconclusive: 29.1 µM [activator, single point]",–
COC(=O)c1c(C)[nH]c(C(=O)CN(C)CC(=O)Nc2cccc(F)c2)c1C,"inconclusive: 29.1 µM [activator, partial curve, poor fit]",–
Cc1cccc(-c2cccc(NC(=O)C3CCCN(C(=O)c4ocnc4C)C3)c2)c1 (centres undefined),inactive,–
CC(=O)Oc1ccc(/C=N/NS(=O)(=O)c2ccccc2)cc1,"inconclusive: 20.6 µM [activator, single point]",–
COC(=O)c1ccc(NC(=O)CSc2nc(=O)cc(N)n2-c2ccccc2)cc1,"inconclusive: 4.61 µM [activator, partial curve, poor fit]",–
NS(=O)(=O)c1ccc(NC(=O)CSc2nc3ccccc3nc2N2CCOCC2)cc1,inactive,–
CCN(CC)S(=O)(=O)c1cccc(-c2nnc(SCC(N)=O)n2C)c1,inactive,–
CCOc1ccc(-c2nnc(SCC(=O)Nc3cc(C)on3)o2)cc1,"inconclusive: 6.51 µM [activator, single point]",–
CCN1CCN(C(c2cccs2)C(C)NC(=S)Nc2cccc(C)c2C)CC1 (centres undefined),inactive,–
Cc1cccc(NS(=O)(=O)c2cc(C(=O)NCCC3=CCCCC3)ccc2Cl)c1,"inconclusive: 11.6 µM [activator, partial curve, poor fit]",–

Compound,Potency,re-replication activation
COc1ccccc1-c1nc2ccccc2c(=O)n1O,inactive,–
O=C(CC1S/C(=N/N=C/c2cccs2)NC1=O)Nc1ccc(Cl)c(Cl)c1 (centres undefined),"inconclusive: 0.0058 µM [activator, full curve, poor fit]",–
CCOC(=O)C1CN(S(=O)(=O)c2ccc(OC)cc2)c2cc(CC(=O)OC)ccc2O1 (centres undefined),"inconclusive: 25.9 µM [activator, partial curve, poor fit]",–
CCc1ccc(S(=O)(=O)/N=C2/C=C(Sc3ncn[nH]3)C(=O)c3ccccc32)cc1,active: 4.61 µM,–
COC(=O)C1=CNC=C(C(=O)OC)C1c1cccc2ccccc12,"inconclusive: 29.1 µM [activator, single point]",–
CC(C)(C)[C@@H]1COC(=O)[C@H](Cc2ccc(F)cc2)CC/C=C\C[C@@H](CC(=O)N(CCO)Cc2ccccc2)C(=O)N1,inactive,–
CCCCC(=O)Nc1ccc(C(=O)NNC(=S)NC(=O)c2ccccc2[N+](=O)[O-])cc1,inactive,–
CCOC(=O)C[C@H]1c2ccccc2S(=O)(=O)N1Cc1cc(OC)c(OC)c(OC)c1,inactive,–
COC(=O)Cn1cnc2c(Cl)nc(F)nc21,"inconclusive: 29.1 µM [activator, partial curve, poor fit]",–
CNC(=S)NCCc1ccccc1,inactive,–
C=CC[C@@H](CC(=O)NCCO)C(=O)NC[C@H](OC(=O)[C@@H](CC=C)Cc1ccc(F)cc1)c1ccccc1,inactive,–
CCCCCC(=O)N/N=C/c1ccc([N+](=O)[O-])o1,active: 8.91 µM,–
Cc1ccc(C)c(NC(=S)NCc2ccc3c(c2)OCO3)c1,–,inactive: -0.256% [at 9.22 µM]
CN(Cc1c(F)cccc1Cl)C(=O)c1cc2ccccc2o1,"inconclusive: 0.651 µM [activator, partial curve]",–
COc1ccccc1N1CCN(C(=O)c2cc(-c3ccc(F)cc3)[nH]c2C)CC1,"inconclusive: 29.1 µM [activator, single point]",–
Cc1cc(=O)n2[nH]c(=O)c(N=Nc3ccccc3)c2[nH]1,–,inactive: 0.749% [at 9.22 µM]
O=c1c2[nH]c3ccc(F)cc3c2ncn1CCCN1CCOCC1,"inconclusive: 7.31 µM [activator, partial curve, poor fit]",–
COCCn1nnnc1C(c1cccs1)N1CCN(c2ccccc2)CC1 (centres undefined),"inconclusive: 29.1 µM [activator, single point]",–
CN(C)S(=O)(=O)c1cccc(NC(=S)N/N=C/c2cc(Br)ccc2O)c1,"inconclusive: 0.731 µM [activator, full curve]",–
CCC1CCCCN1c1cc(C)nc2cc(-c3cccc(C)c3)nn12 (centres undefined),"inconclusive: 17.8 µM [activator, single point]",–
CCOC(=O)c1cnc2c(C)c(C)ccc2c1NCCN1CCOCC1,"inconclusive: 1.03 µM [activator, full curve, poor fit]",–
O=C1c2cccc3cccc(c23)C(=O)C1(O)O,"inconclusive: 18.4 µM [activator, single point]",–
O=Cc1ccc(F)c([B-](F)(F)F)c1,inactive,–

# Complete entries, looked up by structure. Order of values: Potency	re-replication activation
# COC(=O)Cn1cnc2c(Cl)nc(F)nc21 is listed as inconclusive: 29.1 µM [activator, partial curve, poor fit]	–
# CN(C)S(=O)(=O)c1cccc(NC(=S)N/N=C/c2cc(Br)ccc2O)c1 is listed as inconclusive: 0.731 µM [activator, full curve]	–
